# Test results published in the supplement of paper PMC8728848.
# Some of the results follow.
# Experiments:
# Experiment in all cases: glycan array binding signal (z-score within array); higher = stronger binding
# Settings in all cases: glycan notation: IUPAC condensed, linker removed
# [1] = target: Fuc(a1-2)[Gal(a1-3)]Gal(b1-4)[Fuc(a1-3)]GlcNAc(b1-3)GalNAc
# Procedure, shortened: (§1)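 Columns mapping to the same glycan were averaged after glycan names were converted to IUPAC-condensed notation. The data come from 3228 arrays in the Consortium for Functional Glycomics database, limited to those with an available protein sequence. Binding is reported as a within-array Z-score averaged across arrays of one protein sequence and across linkers.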
# [2] = target: Fuc(a1-2)[Gal(a1-4)]Gal(b1-4)GlcNAc
# Procedure, shortened: as §1
# [3] = target: Fuc(a1-2)[GalNAc(a1-3)]Gal
# Procedure, shortened: as §1
# [4] = target: Fuc(a1-2)[GalNAc(a1-3)]Gal(b1-3)GalNAc(a1-3)[Fuc(a1-2)]Gal(b1-4)GlcNAc
# Procedure, shortened: as §1
# [5] = target: Fuc(a1-2)[GalNAc(a1-3)]Gal(b1-3)GalNAc(b1-3)Gal(a1-4)Gal(b1-4)Glc
# Procedure, shortened: as §1
# [6] = target: Fuc(a1-2)[GalNAc(a1-3)]Gal(b1-3)GlcNAc
# Procedure, shortened: as §1
# [7] = target: Fuc(a1-2)[GalNAc(a1-3)]Gal(b1-3)GlcNAc(b1-2)Man(a1-3)[Fuc(a1-2)[GalNAc(a1-3)]Gal(b1-3)GlcNAc(b1-2)Man(a1-6)]Man(b1-4)GlcNAc(b1-4)GlcNAc
# Procedure, shortened: as §1
# [8] = target: Fuc(a1-2)[GalNAc(a1-3)]Gal(b1-3)GlcNAc(b1-2)Man(a1-3)[Fuc(a1-2)[GalNAc(a1-3)]Gal(b1-3)GlcNAc(b1-2)Man(a1-6)]Man(b1-4)GlcNAc(b1-4)[Fuc(a1-6)]GlcNAc
# Procedure, shortened: as §1
# [9] = target: Fuc(a1-2)[GalNAc(a1-3)]Gal(b1-3)GlcNAc(b1-3)GalNAc
# Procedure, shortened: as §1
# [10] = target: Fuc(a1-2)[GalNAc(a1-3)]Gal(b1-3)GlcNAc(b1-6)GalNAc
# Procedure, shortened: as §1
# [11] = target: Fuc(a1-2)[GalNAc(a1-3)]Gal(b1-4)Glc
# Procedure, shortened: as §1
# [12] = target: Fuc(a1-2)[GalNAc(a1-3)]Gal(b1-4)GlcNAc
# Procedure, shortened: as §1
# [13] = target: Fuc(a1-2)[GalNAc(a1-3)]Gal(b1-4)GlcNAc(b1-2)Man
# Procedure, shortened: as §1
# [14] = target: Fuc(a1-2)[GalNAc(a1-3)]Gal(b1-4)GlcNAc(b1-2)Man(a1-3)[Fuc(a1-2)[GalNAc(a1-3)]Gal(b1-4)GlcNAc(b1-2)Man(a1-6)]Man(b1-4)GlcNAc(b1-4)GlcNAc
# Procedure, shortened: as §1
# [15] = target: Fuc(a1-2)[GalNAc(a1-3)]Gal(b1-4)GlcNAc(b1-2)Man(a1-3)[Fuc(a1-2)[GalNAc(a1-3)]Gal(b1-4)GlcNAc(b1-2)Man(a1-6)]Man(b1-4)GlcNAc(b1-4)[Fuc(a1-6)]GlcNAc
# Procedure, shortened: as §1
# [16] = target: Fuc(a1-2)[GalNAc(a1-3)]Gal(b1-4)GlcNAc(b1-3)Gal(b1-4)GlcNAc
# Procedure, shortened: as §1
# [17] = target: Fuc(a1-2)[GalNAc(a1-3)]Gal(b1-4)GlcNAc(b1-3)Gal(b1-4)GlcNAc(b1-3)Gal(b1-4)GlcNAc
# Procedure, shortened: as §1
# [18] = target: Fuc(a1-2)[GalNAc(a1-3)]Gal(b1-4)GlcNAc(b1-3)GalNAc
# Procedure, shortened: as §1
# [19] = target: Fuc(a1-2)[GalNAc(a1-3)]Gal(b1-4)GlcNAc(b1-3)[Fuc(a1-2)[GalNAc(a1-3)]Gal(b1-4)GlcNAc(b1-6)]GalNAc
# Procedure, shortened: as §1
# [20] = target: Fuc(a1-2)[GalNAc(a1-3)]Gal(b1-4)GlcNAc(b1-6)GalNAc
# Procedure, shortened: as §1
# [21] = target: Fuc(a1-2)[GalNAc(a1-3)]Gal(b1-4)[Fuc(a1-3)]GlcNAc
# Procedure, shortened: as §1
# [22] = target: Fuc(a1-2)[GalNAc(a1-3)]Gal(b1-4)[Fuc(a1-3)]GlcNAc(b1-3)GalNAc
# Procedure, shortened: as §1
# [23] = target: Fuc(a1-2)[GalNAc(a1-4)]Gal(b1-4)GlcNAc
# Procedure, shortened: as §1
# [24] = target: Fuc(a1-2)[GalNAc(b1-3)]Gal
# Procedure, shortened: as §1
# Fuc(a1-3)GlcNAc = target: Fuc(a1-3)GlcNAc
# Procedure, shortened: as §1
# [25] = target: Fuc(a1-3)[Gal(b1-4)]Glc6S
# Procedure, shortened: as §1
# [26] = target: Fuc(a1-3)[Gal(b1-4)]GlcNAc
# Procedure, shortened: as §1
# [27] = target: Fuc(a1-3)[Gal(b1-4)]GlcNAc(b1-2)Man
# Procedure, shortened: as §1
# [28] = target: Fuc(a1-3)[Gal(b1-4)]GlcNAc(b1-2)Man(a1-3)[Fuc(a1-3)[Gal(b1-4)]GlcNAc(b1-2)Man(a1-6)]Man(b1-4)GlcNAc(b1-4)GlcNAc
# Procedure, shortened: as §1
# [29] = target: Fuc(a1-3)[Gal(b1-4)]GlcNAc(b1-2)Man(a1-3)[Fuc(a1-3)[Gal(b1-4)]GlcNAc(b1-2)Man(a1-6)]Man(b1-4)GlcNAc(b1-4)[Fuc(a1-6)]GlcNAc
# Procedure, shortened: as §1
# [30] = target: Fuc(a1-3)[Gal(b1-4)]GlcNAc(b1-3)Gal(b1-3)[Fuc(a1-4)]GlcNAc
# Procedure, shortened: as §1
# [31] = target: Fuc(a1-3)[Gal(b1-4)]GlcNAc(b1-3)Gal(b1-4)[Fuc(a1-3)]GlcNAc
# Procedure, shortened: as §1
# [32] = target: Fuc(a1-3)[Gal(b1-4)]GlcNAc(b1-3)Gal(b1-4)[Fuc(a1-3)]GlcNAc(b1-3)Gal(b1-4)[Fuc(a1-3)]GlcNAc
# Procedure, shortened: as §1
# [33] = target: Fuc(a1-3)[Gal(b1-4)]GlcNAc(b1-3)GalNAc
# Procedure, shortened: as §1
# [34] = target: Fuc(a1-3)[Gal(b1-4)]GlcNAc(b1-6)GalNAc
# Procedure, shortened: as §1
# [35] = target: Fuc(a1-3)[Gal(b1-4)]GlcNAc(b1-6)[Gal(b1-3)GlcNAc(b1-3)]Gal(b1-4)Glc
# Procedure, shortened: as §1
# [36] = target: Fuc(a1-3)[Gal(b1-4)]GlcNAc6S
# Procedure, shortened: as §1
# [37] = target: Fuc(a1-3)[Gal3S(b1-4)]Glc
# Procedure, shortened: as §1
binder,measurement,setting,value
SP15308B-bot-339-22-339 (Bacteroides ovatus) (protein) NEWEDEQYEQYVSFKAPIASGSDGVTTIYVRYKDNGKVTYQLPIIVSGSTVNSQDRDIHIAVDKDTLKTLNIERFSLYRPELWYTEMEEDKYEFPETVHIPAGSCVELLNIDFNLQDIDMLEKWVLPLTIVDDGSYAYQSHPRKNYAKALLKVVPFNNYSGSYTASSMKVYTYINGKPDTNARTTDKRTGYVVDNNSIFFYAGLINEDMDKDMRKKYKINVHFKEDGTLDMKQDDPSNEMEFELIGTPTYSSTSVMDATRPYLERRYVQIMFEYDFQDFTYGGSGTEVIPIKYRVAGSMTLLRNINTQIPDEDQQIEW,glycan array binding signal (z-score),[1],0.522
same,glycan array binding signal (z-score),[2],-0.037
same,glycan array binding signal (z-score),[3],0.504
same,glycan array binding signal (z-score),[4],0.069
same,glycan array binding signal (z-score),[5],-0.502
same,glycan array binding signal (z-score),[6],-0.033
same,glycan array binding signal (z-score),[7],-0.48
same,glycan array binding signal (z-score),[8],-0.323
same,glycan array binding signal (z-score),[9],-0.03
same,glycan array binding signal (z-score),[10],-0.617
same,glycan array binding signal (z-score),[11],-0.333
same,glycan array binding signal (z-score),[12],-0.431
same,glycan array binding signal (z-score),[13],-0.453
same,glycan array binding signal (z-score),[14],0.668
same,glycan array binding signal (z-score),[15],-0.388
same,glycan array binding signal (z-score),[16],-0.369
same,glycan array binding signal (z-score),[17],-0.189
same,glycan array binding signal (z-score),[18],-0.7
same,glycan array binding signal (z-score),[19],-0.315
same,glycan array binding signal (z-score),[20],-0.88
same,glycan array binding signal (z-score),[21],0.129
same,glycan array binding signal (z-score),[22],0.347
same,glycan array binding signal (z-score),[23],0.551
same,glycan array binding signal (z-score),[24],0.15
same,glycan array binding signal (z-score),Fuc(a1-3)GlcNAc,0.062
same,glycan array binding signal (z-score),[25],-0.36
same,glycan array binding signal (z-score),[26],-0.242
same,glycan array binding signal (z-score),[27],-0.323
same,glycan array binding signal (z-score),[28],0.116
same,glycan array binding signal (z-score),[29],0.884
same,glycan array binding signal (z-score),[30],-0.457
same,glycan array binding signal (z-score),[31],0.466
same,glycan array binding signal (z-score),[32],0.298
same,glycan array binding signal (z-score),[33],0.021
same,glycan array binding signal (z-score),[34],-0.187
same,glycan array binding signal (z-score),[35],-0.092
same,glycan array binding signal (z-score),[36],0.238
same,glycan array binding signal (z-score),[37],0.045

# 2 records picked at random from the list so far:
binder,measurement,setting,value
SP15308B-bot-339-22-339 (Bacteroides ovatus) (protein) NEWEDEQYEQYVSFKAPIASGSDGVTTIYVRYKDNGKVTYQLPIIVSGSTVNSQDRDIHIAVDKDTLKTLNIERFSLYRPELWYTEMEEDKYEFPETVHIPAGSCVELLNIDFNLQDIDMLEKWVLPLTIVDDGSYAYQSHPRKNYAKALLKVVPFNNYSGSYTASSMKVYTYINGKPDTNARTTDKRTGYVVDNNSIFFYAGLINEDMDKDMRKKYKINVHFKEDGTLDMKQDDPSNEMEFELIGTPTYSSTSVMDATRPYLERRYVQIMFEYDFQDFTYGGSGTEVIPIKYRVAGSMTLLRNINTQIPDEDQQIEW,glycan array binding signal (z-score),[35],-0.092
same,glycan array binding signal (z-score),[14],0.668
